Data as given in PubChem BioAssay AID686943 (Drosophila RNAi Screening Center, 2013).

Screen: 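Fly genes whose loss alters ERK activation after insulin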 (primary screen)
System: Drosophila S2R+ haemocyte-like cells expressing YFP-tagged ERK (Rolled)
Reagents: long dsRNA against Drosophila genes
Conditions: insulin stimulation versus unstimulated cells; dose and duration not given
Detection: 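Per-plate z-scores of phospho-ERK immunostaining normalised to YFP-tagged ERK, measured with and without insulin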
Direction: replicate 1, z-score of dpERK with insulin and replicate 2, z-score of dpERK with insulin: higher = more active ERK per ERK-YFP after insulin
The deposit covers about 23,000 reagents; below is a random part of those with a known target gene and a result. 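Extra replicates exist only for a retested subset of genes; insulin dose and duration not given; both raised and lowered dpERK matter.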 The numbers tell different reagents against one gene apart. Names joined by + are all predicted targets of the reagent. Further read-outs or replicates are left out here. Reagent sequences are not shown. The record does not give: the amount of reagent, the time to read-out.

| target | reagent | replicate 1, z-score of dpERK with insulin | replicate 2, z-score of dpERK with insulin |
| --- | --- | --- | --- |
| EcR (GeneID 35540) | 1 | 1.23 | 0.87 |
| EcR (GeneID 35540) | 2 | 0.38 | 1.54 |
| CG31848 (GeneID 318980) | 1 | 0.04 | -0.06 |
| CG17105 (GeneID 34466) | 1 | 0.61 | 1 |
| CG9386 (GeneID 41148) | 1 | -0.87 | -0.5 |
| CG42360 (GeneID 37937) | 1 | -0.19 | 0.72 |
| hang (GeneID 32613) | 1 | -0.49 | -2.26 |
| hang (GeneID 32613) | 2 | -0.47 | -1.55 |
| mRpL39 (GeneID 39627) | 1 | 0.03 | -0.03 |
| l(2)05287 (GeneID 35374) | 1 | -1.18 | -0.39 |
| l(2)05287 (GeneID 35374) | 2 | -0.79 | -0.77 |
| Dif (GeneID 35045) | 1 | 0.27 | 0.45 |
| pr (GeneID 35292) | 1 | 1.01 | 1.13 |
| CG16852 (GeneID 34769) | 1 | -0.02 | 0.15 |
| bsf (GeneID 35100) | 1 | -0.67 | -0.44 |
| Prx4 (GeneID 53577) | 1 | 0.32 | -0.19 |
| CG14088 (GeneID 40098) | 1 | -0.94 | 0.2 |
| Gr22e (GeneID 117498) | 1 | 0.49 | 1.04 |
| RpL35A (GeneID 40654) | 1 | -2.61 | -2.02 |
| Gal (GeneID 33839) | 1 | -0.08 | -0.05 |
| Cap-D2 (GeneID 43491) | 1 | -0.28 | 0.7 |
| CG33234 (GeneID 2769006) | 1 | -0.08 | -0.04 |
| spd-2 (GeneID 39850) | 1 | -0.01 | 2.72 |
| CG17726 (GeneID 41349) | 1 | 0.81 | -0.45 |
| CG31441 (GeneID 326139) | 1 | -0.08 | -0.64 |
| Gr59d (GeneID 117343) | 1 | 0 | 0.27 |
| CG4020 (GeneID 31522) | 1 | -0.62 | 0 |
| E2f2 (GeneID 35381) | 1 | 0.3 | 0.5 |
| CG31999 (GeneID 43777) | 1 | -0.2 | 0.41 |
| CG31999 (GeneID 43777) | 2 | 0.06 | -0.16 |
| Gprk2 (GeneID 49045) | 1 | -0.44 | -0.8 |
| CG8565 (GeneID 32538) | 1 | 0.33 | 0.66 |
| CG43277 (GeneID 12798350) | 1 | 0.57 | -0.4 |
| CG13073 (GeneID 39773) | 1 | 1.33 | 0.18 |
| Bap55 (GeneID 36956) | 1 | -1.56 | -2.18 |
| CG3610 (GeneID 41795) | 1 | 1.1 | 0.75 |
| Lsd-2 (GeneID 32437) | 1 | 0.99 | 0.35 |
| Cyt-c-d (GeneID 34995) | 1 | -0.18 | -0.23 |
| Tsp2A (GeneID 31080) | 1 | -0.22 | 1.19 |
| Gpdh2 (GeneID 37672) | 1 | -0.23 | -0.07 |
| veil (GeneID 36968) | 1 | 0.27 | -0.45 |
| Glut1 (GeneID 38109) | 1 | -0.54 | -0.46 |
| Glut1 (GeneID 38109) | 2 | 0.91 | 0.9 |
| Glut1 (GeneID 38109) | 3 | -0.09 | 0.43 |
| RhoGAP71E (GeneID 39693) | 1 | 2.44 | 2.91 |
| RhoGAP71E (GeneID 39693) | 2 | 4 | 2.66 |
| RhoGAP71E (GeneID 39693) | 3 | 1.37 | 1.69 |
| HSPC300 (GeneID 246497) | 1 | 0.13 | 0.31 |
| CG18530 (GeneID 59241) | 1 | -1.28 | -0.35 |
| polybromo (GeneID 42954) | 1 | -1.58 | 1.86 |
| CG8507 (GeneID 41205) | 1 | -0.08 | 0.51 |
| NimB5 (GeneID 34815) | 1 | -0.89 | -0.18 |
| EndoA (GeneID 42265) | 1 | -0.17 | 0 |
| Ppcs (GeneID 42295) | 1 | 0.29 | -0.08 |
| CG14454 (GeneID 40482) | 1 | 0.15 | 2.36 |
| Npc2d (GeneID 41232) | 1 | 0.41 | 0.58 |
| Sec22 + CG13358 | 1 | -0.95 | -1.78 |
| CG8508 (GeneID 41620) | 1 | 0.64 | -0.23 |
| CCT2 (GeneID 31838) | 1 | -1.43 | -0.8 |
| Sk2 (GeneID 326219) | 1 | 0.15 | -0.02 |
| CG6576 (GeneID 39003) | 1 | 0.2 | 0.21 |
| Obp57a (GeneID 246670) | 1 | 0.85 | -0.01 |
| Scgbeta (GeneID 41525) | 1 | 0.63 | 0.6 |
| CG42542 (GeneID 8674000) | 1 | 0.38 | -0.16 |
| CG42542 (GeneID 8674000) | 2 | 4.72 | 1.14 |
| melt (GeneID 38785) | 1 | 0.72 | 0.48 |
| CG32640 + CG32641 | 1 | -2.93 | 0.86 |
| CG9760 (GeneID 39388) | 1 | 0.75 | 0.02 |
| CG8298 (GeneID 36282) | 1 | 0.21 | 0.03 |
| CG7655 (GeneID 42128) | 1 | -0.31 | 0.12 |
| Marf (GeneID 31581) | 1 | -0.31 | -2.78 |
| CG11674 (GeneID 32374) | 1 | 0.24 | -0.28 |
| Adgf-E (GeneID 36627) | 1 | -0.44 | -1.25 |
